Results: patent US8071368B2 (Alizé Pharma SAS, priority 2001, dated 2011)

Assay: peptide synthesis
Conditions: whole synthesis, HPLC, tifluoroacetate salt

Substance: NH2Gly-Ser-Ser-Phe-Leu-Ser-Pro-Glu-His-Gln-Arg-Val-Gln-Gln-Arg-Lys-Glu-Ser-Lys-Lys-Pro-Pro-Ala-Lys-Leu-Gln-Pro-Arg (GSSFLSPEHQRVQQRKESKKPPAKLQPR; synthetic polypeptide unacylated ghrelin)
- purity (crude or final not stated): 95.1%
